Measurements published in patent US8933270B2, “Use of docasatrienes, resolvins, and their stable analogs in the treatment of airway diseases and asthma” (The Brigham and Women's Hospital, Inc., priority 2002, dated 2015).

Assay: PD1 extraction from murine lung, LC-PDA-MS-MS quantitation
Design: species or system mice
Settings: DHA 100 μg, 40 min, 37° C.

## CC/C=C\C[C@H](O)\C=C/C=C/C=C/C(O)C/C=C\C/C=C\CCC(=O)O (stereo in doubt) [PD1, 10,17S-dihydroxy-4,7,15,19-cis-11,13-trans-docosahexaenoic acid]
  increase of PD1 recovery on addition of exogenous DHA to homogenate of inflamed lungs ex vivo: approximately 5 fold
